Measured values from PubChem BioAssay AID2685 (National Center for Advancing Translational Sciences (NCATS), 2010).
This is one part of the list. Shown are side measurements of this screen, not its main read-out; they come without a call. The list favours compounds with an active or inconclusive main result. Potencies come from curve fits of mixed quality, noted in brackets.

Experiment: qHTS Assay for Lipid Storage Modulators in Drosophila S3 Cells;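 for cell number change: cells counted by Cell Tracker Red CMTPX staining in the red channel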
Details: BODIPY lipid droplet fluorescence, 18-24 h; for cell number change: measured here: cell count max response, cells fed with added oleic acid
In short: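 Drosophila S3 cells got compounds at several concentrations plus oleic acid (400 uM solution). Laser-scanning cytometry with 488 nm excitation read lipid droplets at 500-530 nm and cells at 575-640 nm. Percent activity was relative to 20 uM Triacsin C.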

[1] = measured here: lipid fluorescence (Fed channel) AC50, cells fed with added oleic acid
[2] = measured here: cell number channel AC50, cells fed with added oleic acid

SMILES	cell number change	AC50 [1]	AC50 [2]
CC(C)N1C(=O)/C(=C/c2nc3ccccc3c(=O)n2-c2ccccc2)c2ccccc21	-131%	–	–
Cc1ccc(C(=O)OC(C)CN2CCN(C)CC2)cc1 (stereo unspecified)	-20.9%	3.66 µM [falling, full curve]	–
CC(C)NC(=O)C(Sc1ccccc1)c1ccccc1 (stereo unspecified)	-2.71%	–	–
Cc1ccc(C2=NN(C(=O)CCl)C(c3cccs3)C2)o1 (stereo unspecified)	-37.5%	14.6 µM [falling, partial curve]	9.2 µM [falling, partial curve]
Cc1ccccc1-n1c(C)nnc1SCC(=O)N1CCc2ccccc2C1	–	0.461 µM [falling, full curve, poor fit]	6.51 µM [rising, single point]
CC1(C)Cc2c(cnn2-c2ccc(F)cc2)C(NC(=O)C(C)(C)O)C1 (stereo unspecified)	3.79%	0.116 µM [rising, full curve, poor fit]	–
Cc1nn(C)c(=O)n1-c1ccc(Oc2ccccc2)cc1	–	0.231 µM [rising, full curve]	–
COc1cc(/C=C/C(=O)OCC(=O)N2CCN(S(=O)(=O)c3ccc(C)cc3C)CC2)ccc1O	-32.3%	3.26 µM [rising, partial curve]	4.11 µM [rising, partial curve]
CCOCc1nnc(NC(=O)c2cc(OC)c(OC)cc2[N+](=O)[O-])s1	-58.8%	0.562 µM [falling, partial curve, poor fit]	–
CC(=O)c1cccc(NC(=O)CSc2nc(=O)n(CCCN3CCOCC3)c3c2CCC3)c1	34.3%	–	0.411 µM [rising, full curve, poor fit]
CCc1nc(Nc2ccc(OC)c(OC)c2)c2nnn(Cc3ccccc3Cl)c2n1	-28.6%	14.6 µM [falling, single point]	–
CCNc1nc(NCC)nc(Oc2ccc(N)cc2)n1	-6.51%	–	–
CC1CCCC(NC(=O)COC(=O)c2ccc(N(C)C)cc2)C1C (stereo unspecified)	37.9%	2.06 µM [rising, partial curve]	1.84 µM [rising, full curve]
CCCc1cc(=O)oc2cc(C)cc(OCC(=O)NC(Cc3c[nH]c4ccc(O)cc34)C(=O)O)c12 (stereo unspecified)	14.2%	–	–
CN(C)S(=O)(=O)N1CCN(C(=O)c2ccc3c(c2)OCO3)CC1	13%	18.4 µM [rising, partial curve]	–
CC1(C(=O)O)CCC(C(=O)Nc2ccc(Cl)c(Cl)c2)C1(C)C (stereo unspecified)	–	29.1 µM [rising, single point]	–
O=c1c2ccccc2[nH]c2ccccc12	-35.6%	2.59 µM [rising, partial curve]	29.1 µM [falling, single point]
COc1ccccc1NC(=O)CC1C(=O)NCCN1C(=O)Nc1ccccc1 (stereo unspecified)	-4.92%	–	–
COC(=O)c1[nH]c2ccc(C)cc2c1NC(=O)C1=COCCO1	28.4%	–	–
O=C(CSc1nnc2ccc(-c3cccnc3)nn12)Nc1ccccc1	23.4%	4.11 µM [rising, full curve, poor fit]	–
CC(C)CCN(Cc1ccco1)S(=O)(=O)c1ccc(-c2ccc(=O)[nH]n2)s1	-2.14%	29.1 µM [rising, single point]	–

SMILES	cell number change	AC50 [1]	AC50 [2]
O=C(Nc1ccc(Br)cc1)c1cc(S(=O)(=O)Nc2ccccn2)ccc1Cl	18.3%	5.17 µM [rising, partial curve, poor fit]	–
Cc1cc([N+](=O)[O-])nn1Cc1ccc(C(=O)N/N=C/c2ccc(O)cc2O)cc1	42.2%	–	0.731 µM [rising, full curve]
COc1cccc(OC)c1OC(=O)/C=C/c1ccc(C)o1	16.9%	–	–
CCN(CC(=O)NC1CCS(=O)(=O)C1)c1ccc([N+](=O)[O-])cc1C#N (stereo unspecified)	18.6%	8.2 µM [rising, partial curve, poor fit]	–
COc1ccc(OC)c(N(/C(N)=N/c2nc(C)cc(C)n2)S(=O)(=O)c2ccc(NC(C)=O)cc2)c1	13.2%	–	–
C/C(=N\NC(=O)c1cccc([N+](=O)[O-])c1)c1ccncc1	–	–	0.731 µM [rising, single point]
COc1ccccc1OCCn1cc(C(=O)C(C)C)c2ccccc21	26.4%	0.651 µM [falling, single point]	4.11 µM [rising, full curve, poor fit]
O=C(CCc1ccccc1)NNC(=O)c1ccccc1C(=O)O	33.8%	7.31 µM [rising, partial curve]	16.4 µM [rising, single point]
Nc1nc(CN2CCN(c3ccccc3F)CC2)nc(Nc2ccc3c(c2)OCCO3)n1	-32.3%	–	1.3 µM [falling, single point]
COC(=O)c1ccc(CSc2cc(C)c3cccc(C)c3n2)o1	39.1%	29.1 µM [rising, single point]	–
O=C(NC1CCCC1)C1c2ccccc2C(=O)N1C1CCCCC1 (stereo unspecified)	-16.9%	14.6 µM [falling, partial curve, poor fit]	–
COc1ccc(S(=O)(=O)N2CC=C(C(=O)Nc3ccc(NC(C)=O)cc3)CC2)cc1	15.1%	–	0.184 µM [rising, full curve, poor fit]
Fc1cccc(Cl)c1Cn1nnc(-c2ccc(N3CCOCC3)cc2)n1	–	29.1 µM [rising, single point]	–
CN1CCN(S(=O)(=O)c2ccc(Nc3ccc(F)cc3)nc2)CC1	50.6%	–	16.4 µM [rising, single point]
CCCN1CCN(CCCNC(=O)Cn2cc3c(n2)CCCC3)CC1	6.62%	13 µM [falling, partial curve, poor fit]	–
CCNC(=O)COC(=O)c1cccc(Br)c1	5.3%	0.411 µM [rising, full curve, poor fit]	–
O=C(Cn1ncc2c3ccccc3n(Cc3cccc(Cl)c3)c2c1=O)NCC1CCCO1 (stereo unspecified)	–	6.51 µM [rising, single point]	–
O=S(=O)(c1cccs1)N1CCCc2ccccc21	66.6%	–	29.1 µM [rising, single point]
Cn1c(=S)ccc2ccccc21	2.08%	–	–
CN(C)/C=C1/Nc2ccccc2C1=O	7.29%	6.51 µM [falling, single point]	–
CCCc1cc(C(=O)NCC(C)C)no1	-3.57%	0.82 µM [falling, full curve, poor fit]	–

SMILES	cell number change	AC50 [1]	AC50 [2]
CCOC(=O)N1CCN(C2CCCN(C(=O)c3ccccc3C(F)(F)F)C2)CC1 (stereo unspecified)	-21%	–	–
COc1ccc(/C=N/NC(=O)c2cc3c(OC)ccc(OC)c3[nH]2)cc1O	-70.6%	20.6 µM [falling, single point]	29.1 µM [falling, single point]
Cc1cc(C)nc(SCc2nnc(SCC(=O)N3CCOCC3)o2)n1	4.87%	1.16 µM [rising, partial curve]	–
Cc1ccc(Cl)cc1N1CCN(S(=O)(=O)c2cnc[nH]2)CC1	-4.43%	7.31 µM [rising, partial curve]	–
COc1ccccc1C(=O)N/N=C(\C)CC(=O)Nc1ccccc1NC(C)=O	-5.84%	–	–
O=c1c2ccccc2ncn1-c1ccccc1F	9.79%	0.0146 µM [rising, full curve, poor fit]	–
C=CCc1cc(C=O)cc(OCC)c1OCc1ccc(Cl)cc1	4.29%	0.92 µM [rising, partial curve]	–
COc1ccc(CNC(=O)C/C(C)=N/NC(=O)Cc2ccc(OC)cc2)cc1	-40.6%	–	0.13 µM [falling, full curve, poor fit]
Cc1c(C(=O)OCc2ccccc2)nnn1-c1nonc1N	-4.67%	–	6.51 µM [falling, single point]
Cc1ccc(-c2ccc(C(=O)NCc3ccc(Cl)cc3)o2)c2ccccc12	10.4%	0.058 µM [rising, full curve, poor fit]	0.058 µM [rising, full curve, poor fit]
COc1ccc2nc(SCCOC(=O)Nc3ccc(Cl)cc3)nc(C)c2c1	–	–	4.11 µM [rising, single point]
O=C(O)c1ccc2c(c1)-c1nc3ccccc3n1C2=O	-2.36%	2.91 µM [falling, partial curve]	0.164 µM [rising, full curve, poor fit]
CCOC(=O)N1CCN(Cc2nc(N)nc(Nc3ccc(Oc4ccccc4)cc3)n2)CC1	–	18.4 µM [rising, single point]	0.58 µM [rising, single point]
O=C(COc1ccc(S(=O)(=O)N2CCCCC2)cc1Cl)N1CCCC1	-0.84%	2.31 µM [rising, single point]	–
Cc1csc(SCC(=O)NC(=O)NC(C)C)n1	8.55%	–	0.058 µM [rising, full curve, poor fit]
CC(C)CC(=O)NC(Nc1ccccc1F)C(Cl)(Cl)Cl (stereo unspecified)	-22.5%	32.6 µM [falling, partial curve]	–
S=c1[nH]c(-c2ccccc2)cn1/N=C/c1cccs1	-43.9%	4.61 µM [falling, full curve]	2.91 µM [falling, full curve]
CN(C)CCC1c2ccc(Cl)cc2CCc2cccnc21 (stereo unspecified) (tested in a mixture with another compound)	6.16%	2.59 µM [rising, partial curve, poor fit]	–
CCCCn1c(N)c(N(CC)C(=O)c2cc(CC)c(C)s2)c(=O)[nH]c1=O	-5.22%	–	–
O=S(=O)(c1cccs1)N1CCN(CC(O)COc2cccc(Br)c2)CC1 (stereo unspecified)	39.2%	–	20.6 µM [rising, single point]

Two entries picked at random from the list so far, as already listed:
SMILES	cell number change	AC50 [1]	AC50 [2]
CCOC(=O)N1CCN(C2CCCN(C(=O)c3ccccc3C(F)(F)F)C2)CC1 (stereo unspecified)	-21%	–	–
CCCCn1c(N)c(N(CC)C(=O)c2cc(CC)c(C)s2)c(=O)[nH]c1=O	-5.22%	–	–
